In paper PMC6382350:
No constants are given. Whether binding was seen depends on the method and setting. Binding seen in cells or lysates may run through a third protein.

Target: GFP-Prod (Drosophila melanogaster)
Assay: co-IP; GFP-Trap magnetic beads on lysates of larval brains (wor-gal4) or Upd testis tumors (nos-gal4) expressing GFP-Prod; lysis in 50 mM Tris pH 7.5, 5% glycerol, 0.2% IGEPAL, 1.5 mM MgCl2, 125 mM NaCl; 3 hr at 4°C; blotted with anti-GFP and anti-D1

- binding: no binding
B1: D1 (protein, UniProt P22058 1-355)
chain: MEEVAVKKRGRPSKASVGGKSSTAAVAAISPGIKKRGRPAKNKGSSGGGGQRGRPPKASKIQNDEDPEDEGEEDGDGDGSGAELANNSSPSPTKGRGRPKSSGGAGSGSGDSVKTPGSAKKRKAGRPKKHQPSDSENEDDQDEDDDGNSSIEERRPVGRPSAGSVNLNISRTGRGLGRPKKRAVESNGDGEPQVPKKRGRPPQNKSGSGGSTGYVPTGRPRGRPKANAAPVEKHEDNDDDQDDENSGEEEHSSPEKTVVAPKKRGRPSLAAGKVSKEETTKPRSRPAKNIDDDADDADSADQGQHNSKKESNDEDRAVDGTPTKGDGLKWNSDGENDANDGYVSDNYNDSESVAA
